From PMC4784862, “DNA Sequence Determinants Controlling Affinity, Stability and Shape of DNA Complexes Bound by the Nucleoid Protein Fis”
These are yes or no findings as the source states them, for the method shown. Some entries that bind do so weakly or less than the wild type.

Sequences of proteins named here, by UniProt entry; tags and fusion partners are left off.
UniProt P0A6R3: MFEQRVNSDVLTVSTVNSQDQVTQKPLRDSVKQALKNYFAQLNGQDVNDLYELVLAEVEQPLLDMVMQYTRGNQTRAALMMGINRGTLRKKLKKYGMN

Biological target: Fis nucleoid protein (UniProt P0A6R3)
Assay: crystal structure; Fis co-crystallized with 27 bp DNA duplexes (F35, F1±8A, F1±8C, F1±8G, F31, F32); protein chains A and B in one asymmetric unit; space group C2 (F35) or P2_(1)2_(1)2_(1); data collected at 100 K; both purified

- binding: binds
Substance: Fis nucleoid protein (from UniProt P0A6R3 1-98)
